Results deposited as PubChem BioAssay AID686937 (Drosophila RNAi Screening Center, 2013)
The deposit covers about 23,000 reagents; shown is a random part of those that have a named target and a result. 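Reduced-secretion tags in replicate 1 do not always agree with the z-scores; no criterion for assigning the tags was given.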 The numbers tell different reagents against one gene apart. A plus sign joins genes that one reagent is predicted to hit. Not given: the amount of reagent.

Aim: 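Genes whose loss weakens secretory pathway function in fly cells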 (primary screen)
Cell system: Drosophila S2 cells expressing secreted horseradish peroxidase
Reagent: long dsRNA against Drosophila genes
Duration: about 5.5 days (5 days dsRNA, then 12 h reporter induction)
Conditions: reporter expression induced after 5 days of dsRNA, read 12 h later; inducer not stated
Read-out: 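Chemiluminescent measurement of peroxidase in the medium 12 h after reporter induction, following 5 days of dsRNA, given as a z-score per plate; higher means more secretion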
Reading the numbers: z-score: higher = more reporter secreted into medium

| gene knocked down | reagent no. | z-score, replicate 1 | z-score, replicate 2 | z-score, replicate 3 | z-score, replicate 4 | phenotype, replicate 1 |
| --- | --- | --- | --- | --- | --- | --- |
| Sox15 | 1 | -0.9 | -0.82 | – | – | – |
| TwdlR | 1 | 0.52 | 0.38 | – | – | – |
| boca | 1 | 0.37 | 0.44 | – | – | – |
| Duox | 1 | 0.41 | 0.51 | – | – | – |
| rin | 1 | -1.8 | -0.88 | – | – | reduced secretion |
| Vha36-2 | 1 | 0.09 | 0.22 | – | – | – |
| Cenp-C | 1 | -1.62 | -2.09 | – | – | reduced secretion |
| Xpc | 1 | 0.49 | 0.29 | – | – | – |
| Sgf11 | 1 | 0.57 | 0.41 | – | – | – |
| TfIIB | 1 | -2.77 | -4.97 | – | – | reduced secretion |
| agt | 1 | 0.19 | 0.16 | – | – | – |
| trbl | 1 | 0.37 | 0.4 | – | – | – |
| CG6225 | 1 | 0.02 | 0.14 | – | – | – |
| CG12576 | 1 | 0.22 | 0.32 | – | – | – |
| Cpr67Fa2 | 1 | 0.11 | 0.27 | – | – | – |
| CG1288 | 1 | 0.04 | -0.12 | – | – | – |
| CG7715 | 1 | 0.34 | 0.34 | – | – | – |
| lncRNA:CR32661 + lncRNA:CR43157 | 1 | 0.27 | 0.24 | – | – | – |
| Pgcl | 1 | 0.41 | -0.05 | – | – | – |
| Vsp37A | 1 | 0.29 | 0.25 | – | – | – |
| kek2 | 1 | 0.28 | 0.48 | – | – | – |
| PH4alphaMP | 1 | 0.24 | 0.15 | – | – | – |
| mura | 1 | -0.43 | -0.93 | – | – | – |
| mura | 2 | -5.77 | -2.84 | – | – | reduced secretion |
| CG4360 | 1 | 0.27 | -0.15 | – | – | – |
| CG32523 | 1 | 0.18 | 0.17 | – | – | – |
| CG13310 | 1 | 0.29 | -1.14 | – | – | – |
| Ebp | 1 | 0.09 | 0.21 | – | – | – |
| otu | 1 | 0.34 | 0.55 | – | – | – |
| CG5612 | 1 | 0.65 | 0.67 | – | – | – |
| CG3961 | 1 | 0.23 | 0.33 | – | – | – |
| CG3961 | 2 | 0.45 | -0.04 | – | – | – |
| Rcd6 | 1 | 0.38 | 0.29 | – | – | – |
| CG34247 | 1 | 0.28 | -0.02 | – | – | – |
| CCT2 | 1 | -0.04 | -0.22 | – | – | – |
| CG14740 | 1 | 0.22 | 0.29 | – | – | – |
| Reg-5 | 1 | 0.49 | 0.29 | – | – | – |
| CG14277 | 1 | 0.17 | 0.15 | – | – | – |
| CG10068 | 1 | 0.02 | -0.07 | – | – | – |
| CG13021 | 1 | -2.98 | -0.27 | – | – | – |
| Slc25A46b | 1 | -0.32 | 0.05 | – | – | – |
| CG33639 | 1 | 0.33 | 0.24 | 0.31 | 0.32 | – |
| CG33639 | 2 | 4.05 | 3.3 | – | – | – |
| CG30159 | 1 | 0.17 | 0.32 | – | – | – |
| CSN1a | 1 | 0.18 | 0.21 | – | – | – |
| gskt | 1 | 0.67 | 0.79 | – | – | – |
| CG12909 | 1 | 0.02 | -0.1 | – | – | – |
| ArgRS-m | 1 | 0.36 | 0.26 | 0.17 | 0.24 | – |
| CG5339 | 1 | 0.24 | 0.3 | – | – | – |
| PIG-X | 1 | -2.16 | -0.76 | – | – | reduced secretion |
| MICU1 | 1 | 0.1 | 0.1 | – | – | – |
| CG43063 | 1 | 0.37 | 0.37 | – | – | – |
| obst-F | 1 | 0.36 | -0.16 | – | – | – |
| CG13698 | 1 | 0.33 | 0.23 | – | – | – |
| bocks | 1 | 0.47 | 0.66 | – | – | – |
| RhoGAP18B | 1 | 0.14 | 0.28 | – | – | – |
| RhoGAP18B | 2 | 0.43 | 0.28 | – | – | – |
| RhoGAP18B | 3 | -0.06 | 0.18 | – | – | – |
| RhoGAP18B | 4 | -0.94 | -0.13 | – | – | – |
| Vps26 | 1 | 0.9 | 0.67 | – | – | – |
| mRpS17 | 1 | 0.38 | -0.15 | – | – | – |
| Ddr | 1 | -0.17 | 0.19 | – | – | – |
| Ddr | 2 | 0.16 | 0.13 | – | – | – |
| Ddr | 3 | 0.03 | 0.12 | – | – | – |
| Ddr | 4 | 0.42 | 0.24 | 0.37 | 0.45 | – |
| Ddr | 5 | 0.26 | 0.29 | – | – | – |
| Ddr | 6 | 1.65 | -0.22 | – | – | – |
| Xpac | 1 | 0.37 | -0.15 | – | – | – |
| moody | 1 | 0.38 | 0.43 | – | – | – |
| CG4409 | 1 | 0.18 | 0.18 | – | – | – |
| CG15269 | 1 | 0.08 | 0.07 | – | – | – |
| Patsas | 1 | 0.45 | 0.49 | – | – | – |
| EMC7 | 1 | 0.21 | 0.33 | – | – | – |
| Sp1 | 1 | -0.03 | 0.08 | – | – | – |
| Sp1 | 2 | 0.36 | 0.16 | – | – | – |
| CG14088 | 1 | 0.45 | 0.57 | – | – | – |
| Nup160 | 1 | -3 | -4.41 | – | – | reduced secretion |
| CG14854 | 1 | 0.47 | 0.61 | – | – | – |
| CG3342 | 1 | 0.39 | 0.41 | – | – | – |
| Atxn7 | 1 | 0.44 | 0.36 | – | – | – |
| CG7794 | 1 | 0.39 | 0.37 | – | – | – |
| CG33514 | 1 | 0.32 | -0.37 | -0.81 | 0.04 | – |
| CG33514 | 2 | 0.19 | 0.4 | – | – | – |
| CG33514 | 3 | -0.61 | -0.21 | – | – | – |

Part of the list above, set out differently:
gene knocked down	reagent no.	z-score, replicate 1	z-score, replicate 2	z-score, replicate 3	z-score, replicate 4	phenotype, replicate 1
CG12909	1	0.02	-0.1			
ArgRS-m	1	0.36	0.26	0.17	0.24	
CG5339	1	0.24	0.3			
PIG-X	1	-2.16	-0.76			reduced secretion
MICU1	1	0.1	0.1			
CG43063	1	0.37	0.37			
obst-F	1	0.36	-0.16			
CG13698	1	0.33	0.23			
bocks	1	0.47	0.66			
RhoGAP18B	1	0.14	0.28			
RhoGAP18B	2	0.43	0.28			
